# Test results published in patent US9522947B2, “Peptidomimetic macrocycles” (Aileron Therapeutics, Inc., priority 2011, dated 2016).
# At least one structure is not confirmed: it was looked up by name or label, or the drawing left a doubt. Positions of bridges follow the written chain, without caps; N, C: chain ends. Non-standard residues stand in square brackets, D forms with d. Residues, ends and D or L forms follow the SMILES beside them. S5 = C=CCCC[C@](C)(N)C(=O)O; Nle = CCCC[C@H](N)C(=O)O
# Test: Figure 9
# Source text: Table printed on a drawing sheet, Figure 9
# Footnotes: ** literature values
# First reader's note: The Tesamorelin rows are literature values, and their species, dose and route are printed inside the label cell.
compound,measurement,value
"CCCC[C@H](NC(=O)[C@@H](NC(=O)[C@]1(C)CCCC=CCCC[C@](C)(NC(=O)[C@H](CCCNC(=N)N)NC(=O)[C@H](C)NC(=O)[C@H](CO)NC(=O)[C@H](CC(C)C)NC(=O)[C@H](CCC(N)=O)NC(=O)CNC(=O)[C@H](CC(C)C)NC(=O)[C@@H](NC(=O)[C@H](CCCCN)NC(=O)[C@H](CCCNC(=N)N)NC(=O)[C@H](Cc2ccc(O)cc2)NC(=O)[C@H](CO)NC(=O)[C@]2(C)CCCC=CCCC[C@](C)(NC(=O)[C@H](CC(=O)O)NC(=O)[C@@H](C)NC(=O)[C@@H](N)Cc3ccc(O)cc3)C(=O)N[C@@H]([C@@H](C)CC)C(=O)N[C@@H](Cc3ccccc3)C(=O)N[C@@H]([C@@H](C)O)C(=O)N2)C(C)C)C(=O)N[C@@H](CC(C)C)C(=O)N[C@@H](CC(C)C)C(=O)N[C@@H](CCC(N)=O)C(=O)N1)[C@@H](C)CC)C(=O)N[C@@H](CO)C(=O)N[C@@H](CCCNC(=N)N)C(N)=O [SP-1] (H-Y[dA]D[S5]IFT[S5]SYRKVLGQLSAR[S5]LLQ[S5]I[Nle]SR-NH2; staple 4-8, 21-25)",Clp |,2.85 mL/min/kg
same,MRT | hr,1.6 h
same,Vdss |,0.267 L/kg
